# Article doi:10.1101/2025.10.14.682297 (bioRxiv, 2025)
# Where two headings read alike, the source gives them in different places. Results are given in words; binding and its absence hold for the method and conditions named. Some entries that bind do so weakly or less than the wild type.
# B1: human ZNFX1 (NFX1-type zinc finger-containing 1), full-length, 2xStrep-tagged, wild type (enzyme, UniProt Q9P2E3 1-1918, looked up)
# chain: MEERRPHLDARPRNSHTNHRGPVDGELPPRARNQANNPPANALRGGASHPGRHPRANNHPAAYWQREERFRAMGRNPHQGRRNQEGHASDEARDQRHDQENDTRWRNGNQDCRNRRPPWSNDNFQQWRTPHQKPTEQPQQAKKLGYKFLESLLQKDPSEVVITLATSLGLKELLSHSSMKSNFLELICQVLRKACSSKMDRQSVLHVLGILKNSKFLKVCLPAYVVGMITEPIPDIRNQYPEHISNIISLLQDLVSVFPASSVQETSMLVSLLPTSLNALRASGVDIEEETEKNLEKVQTIIEHLQEKRREGTLRVDTYTLVQPEAEDHVESYRTMPIYPTYNEVHLDERPFLRPNIISGKYDSTAIYLDTHFRLLREDFVRPLREGILELLQSFEDQGLRKRKFDDIRIYFDTRIITPMCSSSGIVYKVQFDTKPLKFVRWQNSKRLLYGSLVCMSKDNFETFLFATVSNREQEDLCRGIVQLCFNEQSQQLLAEVQPSDSFLMVETTAYFEAYRHVLEGLQEVQEEDVPFQRNIVECNSHVKEPRYLLMGGRYDFTPLIENPSATGEFLRNVEGLRHPRINVLDPGQWPSKEALKLDDSQMEALQFALTRELAIIQGPPGTGKTYVGLKIVQALLTNESVWQISLQKFPILVVCYTNHALDQFLEGIYNCQKTSIVRVGGRSNSEILKQFTLRELRNKREFRRNLPMHLRRAYMSIMTQMKESEQELHEGAKTLECTMRGVLREQYLQKYISPQHWESLMNGPVQDSEWICFQHWKHSMMLEWLGLGVGSFTQSVSPAGPENTAQAEGDEEEEGEEESSLIEIAEEADLIQADRVIEEEEVVRPQRRKKEESGADQELAKMLLAMRLDHCGTGTAAGQEQATGEWQTQRNQKKKMKKRVKDELRKLNTMTAAEANEIEDVWQLDLSSRWQLYRLWLQLYQADTRRKILSYERQYRTSAERMAELRLQEDLHILKDAQVVGMTTTGAAKYRQILQKVEPRIVIVEEAAEVLEAHTIATLSKACQHLILIGDHQQLRPSANVYDLAKNFNLEVSLFERLVKVNIPFVRLNYQHRMCPEIARLLTPHIYQDLENHPSVLKYEKIKGVSSNLFFVEHNFPEQEIQEGKSHQNQHEAHFVVELCKYFLCQEYLPSQITILTTYTGQLFCLRKLMPAKTFAGVRVHVVDKYQGEENDIILLSLVRSNQEGKVGFLQISNRICVALSRAKKGMYCIGNMQMLAKVPLWSKIIHTLRENNQIGPMLRLCCQNHPETHTLVSKASDFQKVPEGGCSLPCEFRLGCGHVCTRACHPYDSSHKEFQCMKPCQKVICQEGHRCPLVCFQECQPCQVKVPKTIPRCGHEQMVPCSVPESDFCCQEPCSKSLRCGHRCSHPCGEDCVQLCSEMVTIKLKCGHSQPVKCGHVEGLLYGGLLVKCTTKCGTILDCGHPCPGSCHSCFEGRFHERCQQPCKRLLICSHKCQEPCIGECPPCQRTCQNRCVHSQCKKKCGELCSPCVEPCVWRCQHYQCTKLCSEPCNRPPCYVPCTKLLVCGHPCIGLCGEPCPKKCRICHMDEVTQIFFGFEDEPDARFVQLEDCSHIFEVQALDRYMNEQKDDEVAIRLKVCPICQVPIRKNLRYGTSIKQRLEEIEIIKEKIQGSAGEIATSQERLKALLERKSLLHQLLPEDFLMLKEKLAQKNLSVKDLGLVENYISFYDHLASLWDSLKKMHVLEEKRVRTRLEQVHEWLAKKRLSFTSQELSDLRSEIQRLTYLVNLLTRYKIAEKKVKDSIAVEVYSVQNILEKTCKFTQEDEQLVQEKMEALKATLPCSGLGISEEERVQIVSAIGYPRGHWFKCRNGHIYVIGDCGGAMERGTCPDCKEVIGGTNHTLERSNQLASEMDGAQHAAWSDTANNLMNFEEIQGMM
# Assays:
# [1] = target: human ZNFX1 (NFX1-type zinc finger-containing 1), full-length, 2xStrep-tagged, wild type (human) (UniProt Q9P2E3); test: cryo-EM structure
# [2] = target: human ZNFX1 (NFX1-type zinc finger-containing 1), full-length, 2xStrep-tagged, wild type (human) (UniProt Q9P2E3); test: cryo-EM structure; remark: listed apart in the source
binder,measurement,setting,value
B1,binding,[1],binds weakly
same,binding,[2],binds weakly
